Assay results: the supplement of paper PMC8728848
The other results are listed elsewhere or left out.

Columns and labels:
Assay in all cases: glycan array binding signal (z-score within array); higher = stronger binding
Conditions in all cases: glycan notation: IUPAC condensed, linker removed
[1] = target: Gal(a1-3)Gal
Method in brief: (§1)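 Glycan array data were curated from 3228 arrays in the Consortium for Functional Glycomics database and kept only where the protein sequence was available. Glycan names were converted to IUPAC-condensed notation, and columns mapping to the same glycan were averaged. The binding signal is a within-array Z-score, averaged across arrays of the same protein sequence at different concentrations or buffers and across linkers. Negative Z-scores can be read as non-binding.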

[2] = target: Gal(a1-3)Gal(b1-3)GlcNAc
Method in brief: as §1

[3] = target: Gal(a1-3)Gal(b1-3)GlcNAc(b1-2)Man(a1-3)[Gal(a1-3)Gal(b1-3)GlcNAc(b1-2)Man(a1-6)]Man(b1-4)GlcNAc(b1-4)GlcNAc
Method in brief: as §1

[4] = target: Gal(a1-3)Gal(b1-3)GlcNAc(b1-3)GalNAc
Method in brief: as §1

[5] = target: Gal(a1-3)Gal(b1-3)[Fuc(a1-4)]GlcNAc(b1-2)Man(a1-3)[Gal(a1-3)Gal(b1-3)[Fuc(a1-4)]GlcNAc(b1-2)Man(a1-6)]Man(b1-4)GlcNAc(b1-4)GlcNAc
Method in brief: as §1

[6] = target: Gal(a1-3)Gal(b1-4)Glc
Method in brief: as §1

[7] = target: Gal(a1-3)Gal(b1-4)GlcNAc
Method in brief: as §1

[8] = target: Gal(a1-3)Gal(b1-4)GlcNAc(b1-3)GalNAc
Method in brief: as §1

[9] = target: Gal(a1-3)Gal(b1-4)[Fuc(a1-3)]GlcNAc
Method in brief: as §1

[10] = target: Gal(a1-3)Gal(b1-4)[Fuc(a1-3)]GlcNAc(b1-2)Man(a1-3)[Gal(a1-3)Gal(b1-4)[Fuc(a1-3)]GlcNAc(b1-2)Man(a1-6)]Man(b1-4)GlcNAc(b1-4)GlcNAc
Method in brief: as §1

[11] = target: Gal(a1-3)GalNAc
Method in brief: as §1

[12] = target: Gal(a1-3)[Gal(a1-4)]Gal(b1-4)GlcNAc
Method in brief: as §1

[13] = target: Gal(a1-4)Gal(b1-3)GlcNAc(b1-2)Man(a1-3)[Gal(a1-4)Gal(b1-3)GlcNAc(b1-2)Man(a1-6)]Man(b1-4)GlcNAc(b1-4)GlcNAc
Method in brief: as §1

[14] = target: Gal(a1-4)Gal(b1-4)Glc
Method in brief: as §1

[15] = target: Gal(a1-4)Gal(b1-4)GlcNAc
Method in brief: as §1

[16] = target: Gal(a1-4)Gal(b1-4)GlcNAc(b1-2)Man(a1-3)[Gal(a1-4)Gal(b1-4)GlcNAc(b1-2)Man(a1-6)]Man(b1-4)GlcNAc(b1-4)GlcNAc
Method in brief: as §1

[17] = target: Gal(a1-4)Gal(b1-4)GlcNAc(b1-3)Gal(b1-4)Glc
Method in brief: as §1

[18] = target: Gal(a1-4)GlcNAc
Method in brief: as §1

[19] = target: Gal(a1-6)Glc
Method in brief: as §1

[20] = target: Gal(b1-2)Gal
Method in brief: as §1

[21] = target: Gal(b1-3)Gal
Method in brief: as §1

[22] = target: Gal(b1-3)Gal(b1-4)GlcNAc
Method in brief: as §1

[23] = target: Gal(b1-3)Gal(b1-4)GlcNAc(b1-2)Man(a1-3)[Gal(b1-3)Gal(b1-4)GlcNAc(b1-2)Man(a1-6)]Man(b1-4)GlcNAc(b1-4)GlcNAc
Method in brief: as §1

[24] = target: Gal(b1-3)GalNAc
Method in brief: as §1

[25] = target: Gal(b1-3)GalNAc(a1-3)[Fuc(a1-2)]Gal(b1-4)Glc
Method in brief: as §1

[26] = target: Gal(b1-3)GalNAc(a1-3)[Fuc(a1-2)]Gal(b1-4)GlcNAc
Method in brief: as §1

[27] = target: Gal(b1-3)GalNAc(b1-3)Gal(a1-4)Gal(b1-4)Glc
Method in brief: as §1

[28] = target: Gal(b1-3)GalNAc(b1-4)Gal(b1-4)Glc
Method in brief: as §1

[29] = target: Gal(b1-3)GalNAc(b1-4)[Neu5Ac(a2-3)]Gal(b1-4)Glc
Method in brief: as §1

[30] = target: Gal(b1-3)GlcNAc
Method in brief: as §1

[31] = target: Gal(b1-3)GlcNAc(a1-6)Gal(b1-4)GlcNAc
Method in brief: as §1

[32] = target: Gal(b1-3)GlcNAc(b1-2)Man(a1-3)[Gal(b1-3)GlcNAc(b1-2)Man(a1-6)]Man(b1-4)GlcNAc(b1-4)GlcNAc
Method in brief: as §1

[33] = target: Gal(b1-3)GlcNAc(b1-2)Man(a1-3)[Gal(b1-3)GlcNAc(b1-2)Man(a1-6)]Man(b1-4)GlcNAc(b1-4)[Fuc(a1-6)]GlcNAc
Method in brief: as §1

[34] = target: Gal(b1-3)GlcNAc(b1-2)[Gal(b1-3)GlcNAc(b1-6)]Man(a1-6)[Gal(b1-3)GlcNAc(b1-2)Man(a1-3)]Man(b1-4)GlcNAc(b1-4)GlcNAc
Method in brief: as §1

[35] = target: Gal(b1-3)GlcNAc(b1-3)Gal(b1-3)GlcNAc
Method in brief: as §1

[36] = target: Gal(b1-3)GlcNAc(b1-3)Gal(b1-4)Glc
Method in brief: as §1

[37] = target: Gal(b1-3)GlcNAc(b1-3)Gal(b1-4)GlcNAc
Method in brief: as §1

[38] = target: Gal(b1-3)GlcNAc(b1-3)Gal(b1-4)GlcNAc(b1-6)[Gal(b1-3)GlcNAc(b1-3)]Gal(b1-4)Glc
Method in brief: as §1

[39] = target: Gal(b1-3)GlcNAc(b1-3)Gal(b1-4)[Fuc(a1-3)]GlcNAc(b1-6)[Gal(b1-3)GlcNAc(b1-3)]Gal(b1-4)Glc
Method in brief: as §1

[40] = target: Gal(b1-3)GlcNAc(b1-3)GalNAc
Method in brief: as §1

[41] = target: Gal(b1-3)GlcNAc(b1-6)Gal(b1-4)GlcNAc
Method in brief: as §1

[42] = target: Gal(b1-3)[Fuc(a1-4)]GlcNAc
Method in brief: as §1

[43] = target: Gal(b1-3)[Fuc(a1-4)]GlcNAc(b1-2)Man(a1-3)[Gal(b1-3)[Fuc(a1-4)]GlcNAc(b1-2)Man(a1-6)]Man(b1-4)GlcNAc(b1-4)GlcNAc
Method in brief: as §1

[44] = target: Gal(b1-3)[Fuc(a1-4)]GlcNAc(b1-2)Man(a1-3)[Gal(b1-3)[Fuc(a1-4)]GlcNAc(b1-2)Man(a1-6)]Man(b1-4)GlcNAc(b1-4)[Fuc(a1-6)]GlcNAc
Method in brief: as §1

[45] = target: Gal(b1-3)[Fuc(a1-4)]GlcNAc(b1-3)Gal(b1-3)[Fuc(a1-4)]GlcNAc
Method in brief: as §1

B1: Protectin (Homo sapiens), P13987 (protein)
chain: MGIQGGSVLFGLLLVLAVFCHSGHSLQCYNCPNPTADCKTAVNCSSDFDACLITKAGLQVYNKCWKFEHCNFNDVTTRLRENELTYYCCKKDLCNFNEQLENGGTSLSEKTVLLLVTPFLAAAWSLHP
Q: With B1 as the binder, how does the “glycan array binding signal (z-score)” value [1] read?
A: The value was -0.696.

Q: And the “glycan array binding signal (z-score)” value [2]?
A: The value was -1.28.

Q: What about the “glycan array binding signal (z-score)” value [3] of the same binder?
A: The value was -0.73.

Q: What about the “glycan array binding signal (z-score)” value [4] of the same binder?
A: The value was 1.36.

Q: What about the “glycan array binding signal (z-score)” value [5] of the same binder?
A: The value was 0.748.

Q: What about the “glycan array binding signal (z-score)” value [6] of the same binder?
A: The value was -0.308.

Q: What about the “glycan array binding signal (z-score)” value [7] of the same binder?
A: The value was 1.53.

Q: And the “glycan array binding signal (z-score)” value [8]?
A: The value was 0.583.

Q: What about the “glycan array binding signal (z-score)” value [9] of the same binder?
A: The value was 2.41.

Q: What about the “glycan array binding signal (z-score)” value [10] of the same binder?
A: Its value is 1.03.

Q: And the “glycan array binding signal (z-score)” value [11]?
A: Its value is -1.09.

Q: And the “glycan array binding signal (z-score)” value [12]?
A: Its value is -0.495.

Q: And the “glycan array binding signal (z-score)” value [13]?
A: Its value is 0.86.

Q: And the “glycan array binding signal (z-score)” value [14]?
A: Its value is -1.73.

Q: What about the “glycan array binding signal (z-score)” value [15] of the same binder?
A: Its value is -0.039.

Q: And the “glycan array binding signal (z-score)” value [16]?
A: Its value is 2.18.

Q: What about the “glycan array binding signal (z-score)” value [17] of the same binder?
A: Its value is -0.279.

Q: What about the “glycan array binding signal (z-score)” value [18] of the same binder?
A: Its value is 0.405.

Q: And the “glycan array binding signal (z-score)” value [19]?
A: The value was 0.263.

Q: And the “glycan array binding signal (z-score)” value [20]?
A: The value was 0.173.

Q: And the “glycan array binding signal (z-score)” value [21]?
A: Its value is 0.497.

Q: What about the “glycan array binding signal (z-score)” value [22] of the same binder?
A: The value was 1.03.

Q: And the “glycan array binding signal (z-score)” value [23]?
A: The value was -1.35.

Q: And the “glycan array binding signal (z-score)” value [24]?
A: The value was 0.584.

Q: And the “glycan array binding signal (z-score)” value [25]?
A: The value was -0.495.

Q: And the “glycan array binding signal (z-score)” value [26]?
A: Its value is -0.989.

Q: And the “glycan array binding signal (z-score)” value [27]?
A: Its value is 0.433.

Q: And the “glycan array binding signal (z-score)” value [28]?
A: Its value is -0.023.

Q: And the “glycan array binding signal (z-score)” value [29]?
A: The value was -0.31.

Q: What about the “glycan array binding signal (z-score)” value [30] of the same binder?
A: The value was 0.046.

Q: What about the “glycan array binding signal (z-score)” value [31] of the same binder?
A: The value was 0.331.

Q: What about the “glycan array binding signal (z-score)” value [32] of the same binder?
A: The value was 1.11.

Q: And the “glycan array binding signal (z-score)” value [33]?
A: The value was 0.419.

Q: What about the “glycan array binding signal (z-score)” value [34] of the same binder?
A: The value was 2.46.

Q: What about the “glycan array binding signal (z-score)” value [35] of the same binder?
A: Its value is 0.86.

Q: What about the “glycan array binding signal (z-score)” value [36] of the same binder?
A: The value was 2.77.

Q: And the “glycan array binding signal (z-score)” value [37]?
A: Its value is 0.42.

Q: And the “glycan array binding signal (z-score)” value [38]?
A: The value was -0.439.

Q: What about the “glycan array binding signal (z-score)” value [39] of the same binder?
A: The value was 0.12.

Q: What about the “glycan array binding signal (z-score)” value [40] of the same binder?
A: Its value is 1.18.

Q: What about the “glycan array binding signal (z-score)” value [41] of the same binder?
A: Its value is -1.29.

Q: What about the “glycan array binding signal (z-score)” value [42] of the same binder?
A: Its value is 0.523.

Q: What about the “glycan array binding signal (z-score)” value [43] of the same binder?
A: The value was 0.896.

Q: And the “glycan array binding signal (z-score)” value [44]?
A: The value was -0.076.

Q: What about the “glycan array binding signal (z-score)” value [45] of the same binder?
A: Its value is -0.059.
